At least one compound was matched to its structure with a doubt left.
Test system: cultured cells of Taxus baccata LINN
Assay: Taxus baccata cell culture with coronatines
Format: cell-based
Details: concentration of coronatines 10 μM
Procedure: A part of stem of Taxus baccata LINN which had been previously sterilized with 2% antiformin solution or 70% ethanol solution or the like, was placed on solid Woody Plant Medium (containing gelan gum of 0.25% by weight) to which naphthalenacetic acid had been added to give the concentration of 10^−5 M, and static culture was carried out at 25 ° C. in a dark place to provide callus of Taxus baccata LINN. One gram (fresh weight) of the callus was inoculated to an Erlenmeyer flask containing 20 ml of liquid Woody Plant Medium to which the above-mentioned component was added to give the same concentration and shake culture was carried out with a rotary shaker (amplification of 25 mm, 120 rpm) and the callus was subcultured in every 21 days to accelerate the growth rate thereof.
One gram (fresh weight) of the cultured cells thus obtained was inoculated to an Erlenmeyer flask containing 20 ml of liquid Woody Plant Medium to which the above-mentioned component was added to give the same concentration, and shake culture was carried out at 25° C. for 14 days. […]
After completing the culture, cultured cells of Taxus baccata LINN were harvested by filtration and lyophilized, then the dry weight was measured to obtain the yeild of the cultured cells per liter of the liquid medium.

**Q.** With `CC[C@H]1C=C(C(=O)OC)[C@H]2CCC(=O)[C@H]2C1` [Example 11, methyl ester of coronafacic acid] as the molecule, how does the yield of taxol read?
**A.** The yield of taxol was “S.2 mg/l”.
